Results published in publication PMC4493597.

Protein sequences, listed by entry. Tags and fused reporters are not part of them. Lines headed by an entry give the natural chain unless they say otherwise; changes in a name come on top.
UniProt Q96RK4: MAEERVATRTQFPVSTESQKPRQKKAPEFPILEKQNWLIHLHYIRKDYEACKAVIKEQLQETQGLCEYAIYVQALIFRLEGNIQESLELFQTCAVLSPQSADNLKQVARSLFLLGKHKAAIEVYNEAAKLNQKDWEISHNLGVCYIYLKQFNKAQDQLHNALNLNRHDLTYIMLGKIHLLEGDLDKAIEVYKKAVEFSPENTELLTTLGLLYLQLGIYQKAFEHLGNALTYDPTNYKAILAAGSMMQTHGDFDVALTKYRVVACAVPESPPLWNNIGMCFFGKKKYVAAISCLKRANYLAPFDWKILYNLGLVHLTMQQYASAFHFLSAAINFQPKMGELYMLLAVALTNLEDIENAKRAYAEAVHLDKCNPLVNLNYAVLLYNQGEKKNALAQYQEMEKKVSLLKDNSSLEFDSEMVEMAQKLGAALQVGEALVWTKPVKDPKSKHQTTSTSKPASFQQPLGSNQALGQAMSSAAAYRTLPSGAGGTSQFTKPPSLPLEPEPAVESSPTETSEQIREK

Target: Flag-tagged BBS4 A364E mutant (human) (UniProt Q96RK4)
Assay: co-IP; HEK293T co-transfected with Myc-BBS5 and Flag-BBS4; lysate in IP buffer (20 mM Hepes-KOH pH 7.2, 150 mM NaCl, 0.5% NP-40) precipitated with anti-Flag (M2), blot with anti-Myc

binding: binds
B1: Myc-tagged BBS5 (protein, UniProt Q8N3I7 1-341)
chain: MSVLDALWEDRDVRFDLSAQQMKTRPGEVLIDCLDSIEDTKGNNGDRGRLLVTNLRILWHSLALSRVNVSVGYNCILNITTRTANSKLRGQTEALYILTKCNSTRFEFIFTNLVPGSPRLFTSVMAVHRAYETSKMYRDFKLRSALIQNKQLRLLPQEHVYDKINGVWNLSSDQGNLGTFFITNVRIVWHANMNDSFNVSIPYLQIRSIKIRDSKFGLALVIESSQQSGGYVLGFKIDPVEKLQESVKEINSLHKVYSASPIFGVDYEMEEKPQPLEALTVEQIQDDVEIDSDGHTDAFVAYFADGNKQQDREPVFSEELGLAIEKLKDGFTLQGLWEVMS

These are yes or no findings as the source states them, for the method shown. In cells and extracts the contact can be indirect. Binding calls can cover weak binding; strength is not graded here. Sequences can lack the tags named with a protein.
